Laboratory results reported in article PMC7819943, “Rice protein-binding microarrays: a tool to detect cis-acting elements near promoter regions in rice”.
Some of the results follow.

Target: T1, OsSMF1 (Oryza sativa, UniProt Q6ZLB0 1-436)
T1 sequence: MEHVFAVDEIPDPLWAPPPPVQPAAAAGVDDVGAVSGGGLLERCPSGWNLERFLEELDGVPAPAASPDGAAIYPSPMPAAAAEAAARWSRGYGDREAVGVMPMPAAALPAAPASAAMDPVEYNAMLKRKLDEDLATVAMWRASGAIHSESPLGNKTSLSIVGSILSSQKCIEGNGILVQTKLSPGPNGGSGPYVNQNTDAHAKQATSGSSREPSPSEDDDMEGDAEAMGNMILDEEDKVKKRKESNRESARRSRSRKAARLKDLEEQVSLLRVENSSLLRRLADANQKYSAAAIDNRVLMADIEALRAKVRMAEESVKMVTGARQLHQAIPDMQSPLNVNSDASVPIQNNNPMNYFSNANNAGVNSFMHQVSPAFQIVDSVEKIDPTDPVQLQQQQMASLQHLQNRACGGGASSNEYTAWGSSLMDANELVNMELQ
Test: protein-binding microarray (RPBM); PBS, 2% BSA, 51.3 ng/ul salmon testes DNA, 50 uM zinc acetate, 200 nM TF, 25 C, 1 h; high values mean tight binding
Conditions: protein: recombinant; tags: N-terminal polyhistidine and DsRed monomer fusion (pET32a); chain copies: 2; label: CyDye5-dUTP incorporated in the synthesized complementary strand; 3' TTTTT single-stranded linker to array surface; dsDNA, one strand shown
In short: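 For the binding signal, per-feature fluorescence intensity was read in arbitrary units on an Axon 4000B scanner. Before scanning, a 2% BSA-blocked custom Agilent array made double-stranded with Cy5-dUTP was washed after 1 h at 25 °C with 200 nM protein and 50 µM zinc acetate. The proteins were Ni–NTA-purified transcription factors with N-terminal polyhistidine and DsRed fusions, expressed in E. coli BL21-CodonPlus.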

Sequence | binding signal
TGGCCTCTCATCATGTCGTCGACGCCGCCGTCGCCCACCCCGGAGTCACCTAGTGCAG | 3590 fluorescence intensity (a.u.)
GAGGGCGGTTTTGTTGACGCGGCGTCTACGTGGCGGTATTCGGAGTCACCTAGTGCAG | 25900 fluorescence intensity (a.u.)
ATACCATGTTCACGTCATCATGTTACCATGATACCTCGTGCGGAGTCACCTAGTGCAG | 9050 fluorescence intensity (a.u.)
GTTTCTTCAGTTGCTGCCGACTGAGATGGAATTTGGCAATCGGAGTCACCTAGTGCAG | 3720 fluorescence intensity (a.u.)
GAGATCGACACGTTGGTCTACGTGCCTATGCATGTGTTCACGGAGTCACCTAGTGCAG | 4520 fluorescence intensity (a.u.)
CGGTTGCATTTCTCGTCACCATATTCAAATTAAGCCCGCCCGGAGTCACCTAGTGCAG | 3160 fluorescence intensity (a.u.)
ACGAGCCCCACGCCGCCGTGTCCTATCGCCGGCGCCGCATCGGAGTCACCTAGTGCAG | 3940 fluorescence intensity (a.u.)
TGGTCAAGGTCAAGGTCGTCGCTGCCGTGCGGATCCGGCGCGGAGTCACCTAGTGCAG | 3190 fluorescence intensity (a.u.)
CCACTGTCGGTGTCGGCATCGGCGCTGGAGGACCTCGAGCCGGAGTCACCTAGTGCAG | 3140 fluorescence intensity (a.u.)
AACAAATTACAGATTCCACCTATAAACTGCGAGACGGATTCGGAGTCACCTAGTGCAG | 3310 fluorescence intensity (a.u.)
ACTCGCGCCGCCCTGCCCTGTCGTCCCGCCGCATCACCCGCGGAGTCACCTAGTGCAG | 3500 fluorescence intensity (a.u.)
CATTCTCGCGACGACTCGTGCTGACTGCTTCGTCACCAACCGGAGTCACCTAGTGCAG | 7740 fluorescence intensity (a.u.)
TTGTGGAGGAAGCAATCAAGCAACGAAGAGATGTACATTTCGGAGTCACCTAGTGCAG | 12100 fluorescence intensity (a.u.)
CAAATATTTATTGTAGCATCACATTGTCAAATCATAGCGTCGGAGTCACCTAGTGCAG | 3470 fluorescence intensity (a.u.)
ACTTAATTAATTACGTGTTAATGGACTGCTCCGTTTTCCGCGGAGTCACCTAGTGCAG | 8070 fluorescence intensity (a.u.)
CGAAATTCTGAACCATGCATGCTGACAGGTTTGGCATGCCCGGAGTCACCTAGTGCAG | 5100 fluorescence intensity (a.u.)
TTAGTGAACGGTGCAACGCGTCAAGGACGAGTCAACGCGCCGGAGTCACCTAGTGCAG | 4850 fluorescence intensity (a.u.)
ACCTGCCTGACAACACGTACGTACGTGGAAATCATAAACCCGGAGTCACCTAGTGCAG | 5910 fluorescence intensity (a.u.)
GGTGATTCTATTACTTCTAGGTGACGTATATTTGTCAATGCGGAGTCACCTAGTGCAG | 4680 fluorescence intensity (a.u.)
GCGCATGGCACGCCACGGTGGGCGTCGCCGCGGCCGTGTCCGGAGTCACCTAGTGCAG | 3380 fluorescence intensity (a.u.)
TTGATGTGATGGAAAAGCTAGAAGTTTCAAGAGAAAGTTGCGGAGTCACCTAGTGCAG | 25500 fluorescence intensity (a.u.)

Sequence | binding signal
ACCCAGGACCGGACCCAACTCGAATACGGACTCGTGTCACCGGAGTCACCTAGTGCAG | 3770 fluorescence intensity (a.u.)
ATTTATCATTATTAACTAATAATAACATTGATGTAATTAACGGAGTCACCTAGTGCAG | 3400 fluorescence intensity (a.u.)
GGGTGTGTAAGGGTAGGTGGAGGGGTGGGTGATGCGAGATCGGAGTCACCTAGTGCAG | 6050 fluorescence intensity (a.u.)
AGAGAGAGCGTGGGTGGGGTGGGTGCTCTGGGTGACTGGGCGGAGTCACCTAGTGCAG | 6040 fluorescence intensity (a.u.)
GATATGTCCTCCTCCTACGTGGCTATATCCTTATTCTGGTCGGAGTCACCTAGTGCAG | 9960 fluorescence intensity (a.u.)
TTTAAAAGCAATTTTCAAACAATGCATCGTAGTTTTGTGACGGAGTCACCTAGTGCAG | 3530 fluorescence intensity (a.u.)
GAAATTGATGTCCAGGGTGGTTCACCAAAGAAGATAGCTGCGGAGTCACCTAGTGCAG | 3240 fluorescence intensity (a.u.)
GTGTGCACGAAACTGCAACCGTGGCATATTGGCATGCAGGCGGAGTCACCTAGTGCAG | 4070 fluorescence intensity (a.u.)
GCCAGTAGTAGAAGCAGCATCCACGCACGCACCGAACCTTCGGAGTCACCTAGTGCAG | 4450 fluorescence intensity (a.u.)
CTACCCACTCGCGCCGGTCATCGTCATTGTCGCCATGTCCCGGAGTCACCTAGTGCAG | 5340 fluorescence intensity (a.u.)
TCCATATTTACGTCATCAGGACAGCATTGAAAACTTATTGCGGAGTCACCTAGTGCAG | 5770 fluorescence intensity (a.u.)
GCCTTGCACGTATTCACGTCACGCATAAGCTCGATCGAACCGGAGTCACCTAGTGCAG | 4510 fluorescence intensity (a.u.)
GTGATACTGAAGCGGTACGTGACGGGACTTGTCTCGGAGGCGGAGTCACCTAGTGCAG | 3710 fluorescence intensity (a.u.)
TCCTCCGAGACACAATACAAATATATATACAATCACACTCCGGAGTCACCTAGTGCAG | 3950 fluorescence intensity (a.u.)
CGTCCGCCTTGATCGCTATTGACCTAGCAACGCACGCGATCGGAGTCACCTAGTGCAG | 3430 fluorescence intensity (a.u.)
GGGCGTGGAAGGGCCAGCACACTGGGACACGTGGACGGCTCGGAGTCACCTAGTGCAG | 6910 fluorescence intensity (a.u.)
CGCGATCTCCCGGGGCGCTCCCGTATGCCCTTGCGCTGCTCGGAGTCACCTAGTGCAG | 22100 fluorescence intensity (a.u.)
AGAGGATGAAATGATGACGTGGTCACCCTGAGTGTGGGGCCGGAGTCACCTAGTGCAG | 24000 fluorescence intensity (a.u.)
ATGTGGATGAAAGGAACAGAATGTTCGCCCTTCGTCATGACGGAGTCACCTAGTGCAG | 22800 fluorescence intensity (a.u.)
GGGGATCGCGCGAGGACGGGAGGAGTGGTGGCGGTGTGATCGGAGTCACCTAGTGCAG | 3730 fluorescence intensity (a.u.)
CAACTGAACTTGCTGCATGTACGCAGTCACTCCCACCCCACGGAGTCACCTAGTGCAG | 3870 fluorescence intensity (a.u.)

Reprinted at random: two records from the list
Sequence | binding signal
GTGATACTGAAGCGGTACGTGACGGGACTTGTCTCGGAGGCGGAGTCACCTAGTGCAG | 3710 fluorescence intensity (a.u.)
GGGGATCGCGCGAGGACGGGAGGAGTGGTGGCGGTGTGATCGGAGTCACCTAGTGCAG | 3730 fluorescence intensity (a.u.)
